The subject of this assay is Salmonella enterica serovar Typhimurium SL1344. Kind of assay: normalized intracellular growth (luminescence, IQM-normalized) in RAW264.7 macrophages (fraction of plate interquartile mean); higher = more bacterial growth (less inhibition). The conditions noted are these: 10 µM.

± gives the standard deviation of the averaged measurements. Over roughly 1,600 compounds, “normalized intracellular growth (luminescence, IQM-normalized) in RAW264.7 macrophages” has its median near 1; the lowest 2% begin near 0.43. The list shows a part of the results.

In the case of `CC(c1cc2ccccc2s1)N(O)C(N)=O` (centres undefined), the normalized intracellular growth by setting is: (time point: T3 (3 h)) 1.03 ± 0.036; (time point: Tfinal (~6 h)) 1.16 ± 0.35.
On the same counts, the results for `CN(C)CCc1c[nH]c2ccc(C[C@H]3COC(=O)N3)cc12` are 1.02 ± 0.045 and 0.955 ± 0.058.
`CN(C)CCC=C1c2ccccc2C=Cc2ccccc21`: the normalized intracellular growth is, setting by setting: (time point: T3 (3 h)) 0.963 ± 0.028; (time point: Tfinal (~6 h)) 1.13 ± 0.034.
On the same counts, the results for `NS(=O)(=O)c1cc2c(cc1Cl)NCNS2(=O)=O` are 0.982 ± 0.02 and 1.08 ± 0.012.
On the same counts, the results for `Nc1ccc(C(=O)Oc2ccccc2)c(O)c1` are 1.05 ± 0.074 and 0.898 ± 0.21.
On the same counts, the results for `CNNCc1ccc(C(=O)NC(C)C)cc1` are 1.01 ± 0.044 and 0.854 ± 0.17.
In the case of `O=c1[nH]c(=O)n([C@H]2C[C@H](O)[C@@H](CO)O2)cc1F`, the normalized intracellular growth runs as follows: (time point: T3 (3 h)) 0.699 ± 0.043; (time point: Tfinal (~6 h)) 0.209 ± 0.03.
On the same counts, the results for `Oc1ccc(O)cc1` are 0.977 ± 0.093 and 1.09 ± 0.2.
On the same counts, the results for `COc1cc2nc(N3CCN(C(=O)C4CCCO4)CC3)nc(N)c2cc1OC` (centres undefined) are 1.1 ± 0.081 and 1.12 ± 0.12.
As to `CC1CCC(NC(=O)N(CCCl)N=O)CC1` (centres undefined), the normalized intracellular growth was 0.999 ± 0.016 (time point: T3 (3 h)) and 0.899 ± 0.28 (time point: Tfinal (~6 h)).
On the same counts, the results for `Nc1ccc(S(=O)(=O)Nc2ccc(Cl)nn2)cc1` are 0.949 ± 0.026 and 0.834 ± 0.022.
In turn, `Cc1cc2nc3ccc(N(C)C)cc3[s+]c2cc1N` registered a normalized intracellular growth (time point: T3 (3 h)) of 1.43 ± 0.054 and a normalized intracellular growth (time point: Tfinal (~6 h)) of 1.55 ± 0.073.
For the compound `CN(C)CCCOc1nn(Cc2ccccc2)c2ccccc12`, the normalized intracellular growth is, setting by setting: (time point: T3 (3 h)) 0.956 ± 0.38; (time point: Tfinal (~6 h)) 1.47 ± 0.074.
On the same counts, the results for `S=C=Nc1ccc(N=C=S)cc1` are 1.04 ± 0.035 and 1.01 ± 0.11.
Regarding `OC[C@@H](O)[C@@H](O)[C@H](O)[C@@H](O)CO`, the normalized intracellular growth is, setting by setting: (time point: T3 (3 h)) 0.995 ± 0.034; (time point: Tfinal (~6 h)) 0.805 ± 0.19.
With `C#C[C@]1(O)CC[C@H]2[C@@H]3[C@H](C)CC4=C(CCC(=O)C4)[C@H]3CC[C@@]21C`, the normalized intracellular growth (time point: T3 (3 h)) is 1.07 ± 0.016 and the normalized intracellular growth (time point: Tfinal (~6 h)) was determined as 1.19 ± 0.056.
Compound `COc1cc(C(=O)N2CCOCC2)cc(OC)c1OC` displayed a normalized intracellular growth (time point: T3 (3 h)) of 1.071 ± 0.0099 and a normalized intracellular growth (time point: Tfinal (~6 h)) of 1.12 ± 0.24.
On the same counts, the results for `CC(=O)OCC(=O)[C@@]1(O)CC[C@H]2[C@@H]3CCC4=CC(=O)CC[C@]4(C)[C@H]3C(=O)C[C@@]21C` are 0.964 ± 0.041 and 0.941 ± 0.037.
On the same counts, the results for `CC(=O)OCC(=O)[C@@]1(O)CC[C@H]2[C@@H]3CCC4=CC(=O)C=C[C@]4(C)[C@@]3(F)[C@@H](O)C[C@@]21C` are 1.01 ± 0.05 and 0.768 ± 0.15.
On the same counts, the results for `CCCCC(=O)O[C@]1(C(=O)CO)[C@@H](C)C[C@H]2[C@@H]3CCC4=CC(=O)C=C[C@]4(C)[C@@]3(F)[C@@H](O)C[C@@]21C` are 0.7 ± 0.11 and 0.98 ± 0.054.
Regarding `O=C(O)Cc1ccccc1Nc1c(Cl)cccc1Cl`, the normalized intracellular growth is 1.02 ± 0.032 (time point: T3 (3 h)) and 0.963 ± 0.038 (time point: Tfinal (~6 h)).
On the same counts, the results for `C[C@@H](c1ncncc1F)[C@](O)(Cn1cncn1)c1ccc(F)cc1F` are 1.01 ± 0.065 and 0.833 ± 0.3.
On the same counts, the results for `C[C@@H]1CC(=O)NN=C1c1ccc(NN=C(C#N)C#N)cc1` are 1.14 ± 0.042 and 0.946 ± 0.27.
On the same counts, the results for `N=c1ccn2c(n1)O[C@H]1[C@H](O)[C@@H](CO)O[C@H]12` are 1 ± 0.029 and 1.16 ± 0.016.
For `CC(C)Cc1ccc([C@H](C)C(=O)O)cc1`, the normalized intracellular growth reads like this: (time point: T3 (3 h)) 0.977 ± 0.067; (time point: Tfinal (~6 h)) 1.24 ± 0.13.
On the same counts, the results for `CS(=O)(=O)c1ccc([C@@H](O)[C@@H](CO)NC(=O)C(Cl)Cl)cc1` are 0.925 ± 0.07 and 0.767 ± 0.047.
On the same counts, the results for `O=c1[nH]cc(F)c(=O)[nH]1` are 0.731 ± 0.089 and 0.153 ± 0.006.

For the origin of these results see the supplement of paper PMC6331611.
